The source of these data is patent US8603466 (KING S COLLEGE LONDON, dated 2013).

Protein sequences, listed by entry. Tags and fused reporters are not part of them. Residues count along the entry.
UniProt P16473, residues 21-764: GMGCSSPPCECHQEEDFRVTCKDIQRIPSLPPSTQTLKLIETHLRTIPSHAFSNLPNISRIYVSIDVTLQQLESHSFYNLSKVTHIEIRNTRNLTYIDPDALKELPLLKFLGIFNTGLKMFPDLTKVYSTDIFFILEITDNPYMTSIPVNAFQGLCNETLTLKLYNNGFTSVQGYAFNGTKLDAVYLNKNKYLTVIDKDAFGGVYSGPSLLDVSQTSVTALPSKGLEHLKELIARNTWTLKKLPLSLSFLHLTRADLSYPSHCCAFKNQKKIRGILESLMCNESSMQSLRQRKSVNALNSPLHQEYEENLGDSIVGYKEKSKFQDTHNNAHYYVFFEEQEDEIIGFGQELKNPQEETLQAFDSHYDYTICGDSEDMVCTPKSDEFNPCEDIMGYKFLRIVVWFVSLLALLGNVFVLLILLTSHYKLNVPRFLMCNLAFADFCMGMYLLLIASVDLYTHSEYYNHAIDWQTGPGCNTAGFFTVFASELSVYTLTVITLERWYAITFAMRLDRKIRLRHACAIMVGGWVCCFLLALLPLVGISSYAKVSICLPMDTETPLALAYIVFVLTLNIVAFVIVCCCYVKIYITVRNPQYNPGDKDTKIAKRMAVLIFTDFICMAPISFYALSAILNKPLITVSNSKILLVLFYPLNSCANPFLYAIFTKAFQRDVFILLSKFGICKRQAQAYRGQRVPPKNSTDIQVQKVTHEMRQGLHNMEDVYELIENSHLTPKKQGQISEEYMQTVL

These are yes or no findings as the source states them, for the method shown. Some entries that bind do so weakly or less than the wild type.

Experiment [1] concerns the target human TSHR immobilised on coated tubes (TRAK II [DYNOtest human] kit) (human) (UniProt P16473). Description: TBII assay, displacement of 125I-TSH from human TSHR coated tubes.
For experiment [2] the target is unchanged. Description: TBII assay of papain Fab fragments.
The target is the same in experiment [3]. The experiment in a line: competition of 125I-IgG with patients' sera on immobilized human TSHR.
For experiment [4] the target is unchanged. Description: TSH binding inhibition (TRAK) assay and cAMP accumulation with rFab purified from E. coli.

B1: KSAb2 Fab fragments (papain digest of IgG) (Fab, V domains shown)
VH: EVQLQQSGPELVKPGASMKISCKASGYSFTAYTMNWVKQTHGKNLEWIGLINPYNGGTNYNQKFEDKATLTVDKSSNTAYMDLLSLTSEDSAVYYCARRDWDYFDYWGQGTTLTVSS
VL: DVVMTQSQKFLSTSAGDRVSISCKASQNVGTALAWYQQKPGQSPKLLIYSASNRNTGVPDRFTGRGFGTDFTLTISNMQSEDLADYFCQQYSSYPYTFGGGTRLEI
On to B1, for which the binding result in experiment [1] and in experiment [2] was “binds” throughout.

B2: KSAb1 IgG (antibody, V domains shown)
VH: EVQLQQSGPELVKPGASMKISCKASGYSFSAYTMNWVKQSHGKNLEWIGLINPYNGGTNYNQEFEGKATLTVNKSSNTAFMELLSLTSDDSAVYYCARRDWDYFDYWGQGTTLTVSS
VL: DIVMTQSQKFMSTSVGDRVSIICKASQNVGTFVAWYQQKPGQSPKLLVYSASNRYTGVPDRFTGSGSGTDFTLTINNMQSEDLADYFCRQYSSYPYTFGGGTKLEI
notes: also called mAb9; IgG 9
With B2, the binding result in experiment [3] is reported as “binds”.

B3: KSAb2 rFab fragment expressed in E. coli (Fab, V domains shown)
VH: EVQLQQSGPELVKPGASMKISCKASGYSFTAYTMNWVKQTHGKNLEWIGLINPYNGGTNYNQKFEDKATLTVDKSSNTAYMDLLSLTSEDSAVYYCARRDWDYFDYWGQGTTLTVSS
VL: DVVMTQSQKFLSTSAGDRVSISCKASQNVGTALAWYQQKPGQSPKLLIYSASNRNTGVPDRFTGRGFGTDFTLTISNMQSEDLADYFCQQYSSYPYTFGGGTRLEIKR
For the molecule B3, the binding result in experiment [4] is recorded as “binds”.

B4: KSAb2 IgG (antibody, V domains shown)
VH: EVQLQQSGPELVKPGASMKISCKASGYSFTAYTMNWVKQTHGKNLEWIGLINPYNGGTNYNQKFEDKATLTVDKSSNTAYMDLLSLTSEDSAVYYCARRDWDYFDYWGQGTTLTVSS
VL: DVVMTQSQKFLSTSAGDRVSISCKASQNVGTALAWYQQKPGQSPKLLIYSASNRNTGVPDRFTGRGFGTDFTLTISNMQSEDLADYFCQQYSSYPYTFGGGTRLEI
notes: also called mAb17; IgG17
In the case of B4, in experiment [3], the binding entry is recorded as “binds”.

B5: KSAb1 rFab fragment expressed in E. coli (Fab, V domains shown)
VH: EVQLQQSGPELVKPGASMKISCKASGYSFSAYTMNWVKQSHGKNLEWIGLINPYNGGTNYNQEFEGKATLTVNKSSNTAFMELLSLTSDDSAVYYCARRDWDYFDYWGQGTTLTVSS
VL: DIVMTQSQKFMSTSVGDRVSIICKASQNVGTFVAWYQQKPGQSPKLLVYSASNRYTGVPDRFTGSGSGTDFTLTINNMQSEDLADYFCRQYSSYPYTFGGGTKLEIKR
B5: the binding result in experiment [4] is on record as “binds”.

B6: KSAb1 Fab fragments (papain digest of IgG) (Fab, V domains shown)
VH: EVQLQQSGPELVKPGASMKISCKASGYSFSAYTMNWVKQSHGKNLEWIGLINPYNGGTNYNQEFEGKATLTVNKSSNTAFMELLSLTSDDSAVYYCARRDWDYFDYWGQGTTLTVSS
VL: DIVMTQSQKFMSTSVGDRVSIICKASQNVGTFVAWYQQKPGQSPKLLVYSASNRYTGVPDRFTGSGSGTDFTLTINNMQSEDLADYFCRQYSSYPYTFGGGTKLEI
Consider B6, for which the binding entry in experiment [1] and in experiment [2] was “binds” throughout.
